Test results taken from US20150044251A1 (Novartis, published 2015).
Results are given in words; binding and its absence hold for the method and conditions named. Some entries that bind do so weakly or less than the wild type.

The chains behind the UniProt entries cited, without tags or fusion partners. Where a name states a change or a piece, a line headed by the entry shows the natural chain unless it says otherwise.
UniProt Q2FKG1: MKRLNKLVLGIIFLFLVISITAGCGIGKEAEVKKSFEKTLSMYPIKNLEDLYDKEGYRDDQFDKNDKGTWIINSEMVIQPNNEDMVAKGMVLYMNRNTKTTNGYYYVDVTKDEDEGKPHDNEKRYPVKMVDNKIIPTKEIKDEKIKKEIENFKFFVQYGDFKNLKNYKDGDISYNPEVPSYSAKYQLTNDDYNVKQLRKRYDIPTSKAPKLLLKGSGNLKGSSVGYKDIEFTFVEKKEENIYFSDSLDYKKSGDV

Biological target: Sta011 (Staphylococcus aureus) (UniProt Q2FKG1)
Test: capillary electrophoresis (SDS-MW) of tetravalent formulation, pH 6, no EDTA, 25 C up to 72 h; attributed to redox reactions

B1: EsxAB hybrid polypeptide (other)
chain: MAMIKMSPEEIRAKSQSYGQGSDQIRQILSDLTRAQGEIAANWEGQAFSRFEEQFQQLSPKVEKFAQLLEEIKQQLNSTADAVQEQDQQLSNNFGLQASGGGSGGYKGIKADGGKVDQAKQLAAKTAKDIEACQKQTQQLAEYIEGSDWEGQFANKVKDVLLIMAKFQEELVQPMADHQKAIDNLSQNLAKYDTLSIKQGLDRVNP
notes: also called EsxAB monomer
binding: binds
